The list shows a part of the results.
Experiments:
Assay in all cases: log2 fold change, soluble protein after heating vs DMSO (PISA); higher = thermal stabilisation; K562 lysate, 10 uM; active = over 0.2 and 3.5 SD of the protein, either way, in both replicates (recomputed)
[1] = compound: CS(=O)(=O)CCNCc1ccc(-c2ccc3ncnc(Nc4ccc(OCc5cccc(F)c5)c(Cl)c4)c3c2)o1 [lapatinib]
Method in brief: (§1)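 Quantification was by TMTpro 16plex LC-MS/MS with equalised channel sums, applied to the supernatant after 21,000xg for 90 min. Samples were crude K562 extract at 1 mg/mL protein in PBS pH 7.4 with 1 mM MgCl2, treated with 10 μM compound for 30 min, heated for 3 min across 48°C-58°C, pooled and brought to 0.5% NP-40 at 4°C. Values are log-two fold changes in thermal stability relative to solvent controls, from duplicates.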

Amino acid sequences for entries named in this document (tags omitted). A change or cut given only in a name is not applied to a line headed by its entry.
UniProt P52298: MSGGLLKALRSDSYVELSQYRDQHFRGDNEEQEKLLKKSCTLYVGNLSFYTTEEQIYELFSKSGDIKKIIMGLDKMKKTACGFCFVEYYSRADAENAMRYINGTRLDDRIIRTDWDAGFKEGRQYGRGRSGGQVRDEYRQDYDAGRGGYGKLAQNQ
UniProt Q8IUG5: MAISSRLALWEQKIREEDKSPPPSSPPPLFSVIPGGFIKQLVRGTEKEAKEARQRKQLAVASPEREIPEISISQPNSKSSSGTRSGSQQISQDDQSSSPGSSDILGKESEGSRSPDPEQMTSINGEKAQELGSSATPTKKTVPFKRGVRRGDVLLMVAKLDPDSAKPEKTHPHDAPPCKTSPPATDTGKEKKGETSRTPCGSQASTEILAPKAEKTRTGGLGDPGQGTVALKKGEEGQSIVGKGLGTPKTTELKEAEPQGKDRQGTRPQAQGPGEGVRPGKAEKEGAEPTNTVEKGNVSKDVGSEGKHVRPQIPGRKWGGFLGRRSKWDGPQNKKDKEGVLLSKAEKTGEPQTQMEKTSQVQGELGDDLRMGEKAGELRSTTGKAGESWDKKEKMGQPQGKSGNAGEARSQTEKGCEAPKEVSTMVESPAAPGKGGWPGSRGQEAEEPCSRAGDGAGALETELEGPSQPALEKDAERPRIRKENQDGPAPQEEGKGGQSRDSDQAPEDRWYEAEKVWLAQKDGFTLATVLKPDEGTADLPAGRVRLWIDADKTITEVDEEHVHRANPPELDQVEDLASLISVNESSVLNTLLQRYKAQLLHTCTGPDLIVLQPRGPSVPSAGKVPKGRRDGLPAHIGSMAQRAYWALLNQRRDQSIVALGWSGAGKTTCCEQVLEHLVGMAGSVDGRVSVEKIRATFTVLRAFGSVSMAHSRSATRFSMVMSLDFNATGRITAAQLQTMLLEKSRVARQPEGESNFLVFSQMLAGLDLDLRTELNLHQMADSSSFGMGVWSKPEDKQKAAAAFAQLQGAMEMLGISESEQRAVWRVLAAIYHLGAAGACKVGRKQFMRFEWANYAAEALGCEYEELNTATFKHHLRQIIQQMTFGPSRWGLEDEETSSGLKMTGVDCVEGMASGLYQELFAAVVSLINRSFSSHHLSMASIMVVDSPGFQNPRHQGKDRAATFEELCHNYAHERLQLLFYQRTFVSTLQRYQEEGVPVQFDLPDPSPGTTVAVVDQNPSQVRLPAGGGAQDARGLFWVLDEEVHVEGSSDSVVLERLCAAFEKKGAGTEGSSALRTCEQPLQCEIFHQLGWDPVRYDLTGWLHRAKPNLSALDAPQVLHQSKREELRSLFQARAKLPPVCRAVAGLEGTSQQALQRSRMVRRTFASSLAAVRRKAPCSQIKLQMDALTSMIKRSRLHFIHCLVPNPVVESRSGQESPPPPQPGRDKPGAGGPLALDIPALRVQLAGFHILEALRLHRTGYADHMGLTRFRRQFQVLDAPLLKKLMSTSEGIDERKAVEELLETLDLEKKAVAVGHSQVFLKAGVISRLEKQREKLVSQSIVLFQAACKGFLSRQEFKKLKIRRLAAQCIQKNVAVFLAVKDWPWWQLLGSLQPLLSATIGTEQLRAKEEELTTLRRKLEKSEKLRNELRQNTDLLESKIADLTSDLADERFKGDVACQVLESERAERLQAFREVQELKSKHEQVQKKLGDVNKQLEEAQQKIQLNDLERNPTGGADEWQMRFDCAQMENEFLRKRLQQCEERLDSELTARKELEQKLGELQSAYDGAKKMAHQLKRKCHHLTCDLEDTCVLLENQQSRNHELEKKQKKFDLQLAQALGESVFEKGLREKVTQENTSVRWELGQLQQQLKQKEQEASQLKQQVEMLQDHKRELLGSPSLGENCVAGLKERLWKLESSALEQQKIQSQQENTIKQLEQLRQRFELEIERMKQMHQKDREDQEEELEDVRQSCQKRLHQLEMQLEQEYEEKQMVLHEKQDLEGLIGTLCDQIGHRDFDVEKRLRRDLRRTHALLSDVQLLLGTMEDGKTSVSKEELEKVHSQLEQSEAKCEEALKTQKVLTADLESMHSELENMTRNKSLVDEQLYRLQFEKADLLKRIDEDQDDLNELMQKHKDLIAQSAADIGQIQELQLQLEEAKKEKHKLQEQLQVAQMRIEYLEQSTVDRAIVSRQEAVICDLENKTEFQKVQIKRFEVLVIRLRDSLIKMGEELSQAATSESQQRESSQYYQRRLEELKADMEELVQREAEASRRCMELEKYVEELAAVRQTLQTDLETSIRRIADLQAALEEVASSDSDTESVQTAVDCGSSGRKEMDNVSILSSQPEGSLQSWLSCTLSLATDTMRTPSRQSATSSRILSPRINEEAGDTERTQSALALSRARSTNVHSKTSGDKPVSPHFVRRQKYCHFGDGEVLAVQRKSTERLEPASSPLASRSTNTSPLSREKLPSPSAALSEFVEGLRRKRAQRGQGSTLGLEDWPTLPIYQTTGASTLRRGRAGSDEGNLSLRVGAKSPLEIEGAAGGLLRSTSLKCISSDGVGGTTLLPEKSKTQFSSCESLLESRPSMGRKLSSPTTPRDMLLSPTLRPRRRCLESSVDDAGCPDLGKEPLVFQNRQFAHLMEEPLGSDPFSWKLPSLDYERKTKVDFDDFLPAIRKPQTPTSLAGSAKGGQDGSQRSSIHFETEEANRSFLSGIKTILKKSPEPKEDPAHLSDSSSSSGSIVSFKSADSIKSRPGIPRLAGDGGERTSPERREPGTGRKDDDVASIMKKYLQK
UniProt P13533, whole entry, looked up: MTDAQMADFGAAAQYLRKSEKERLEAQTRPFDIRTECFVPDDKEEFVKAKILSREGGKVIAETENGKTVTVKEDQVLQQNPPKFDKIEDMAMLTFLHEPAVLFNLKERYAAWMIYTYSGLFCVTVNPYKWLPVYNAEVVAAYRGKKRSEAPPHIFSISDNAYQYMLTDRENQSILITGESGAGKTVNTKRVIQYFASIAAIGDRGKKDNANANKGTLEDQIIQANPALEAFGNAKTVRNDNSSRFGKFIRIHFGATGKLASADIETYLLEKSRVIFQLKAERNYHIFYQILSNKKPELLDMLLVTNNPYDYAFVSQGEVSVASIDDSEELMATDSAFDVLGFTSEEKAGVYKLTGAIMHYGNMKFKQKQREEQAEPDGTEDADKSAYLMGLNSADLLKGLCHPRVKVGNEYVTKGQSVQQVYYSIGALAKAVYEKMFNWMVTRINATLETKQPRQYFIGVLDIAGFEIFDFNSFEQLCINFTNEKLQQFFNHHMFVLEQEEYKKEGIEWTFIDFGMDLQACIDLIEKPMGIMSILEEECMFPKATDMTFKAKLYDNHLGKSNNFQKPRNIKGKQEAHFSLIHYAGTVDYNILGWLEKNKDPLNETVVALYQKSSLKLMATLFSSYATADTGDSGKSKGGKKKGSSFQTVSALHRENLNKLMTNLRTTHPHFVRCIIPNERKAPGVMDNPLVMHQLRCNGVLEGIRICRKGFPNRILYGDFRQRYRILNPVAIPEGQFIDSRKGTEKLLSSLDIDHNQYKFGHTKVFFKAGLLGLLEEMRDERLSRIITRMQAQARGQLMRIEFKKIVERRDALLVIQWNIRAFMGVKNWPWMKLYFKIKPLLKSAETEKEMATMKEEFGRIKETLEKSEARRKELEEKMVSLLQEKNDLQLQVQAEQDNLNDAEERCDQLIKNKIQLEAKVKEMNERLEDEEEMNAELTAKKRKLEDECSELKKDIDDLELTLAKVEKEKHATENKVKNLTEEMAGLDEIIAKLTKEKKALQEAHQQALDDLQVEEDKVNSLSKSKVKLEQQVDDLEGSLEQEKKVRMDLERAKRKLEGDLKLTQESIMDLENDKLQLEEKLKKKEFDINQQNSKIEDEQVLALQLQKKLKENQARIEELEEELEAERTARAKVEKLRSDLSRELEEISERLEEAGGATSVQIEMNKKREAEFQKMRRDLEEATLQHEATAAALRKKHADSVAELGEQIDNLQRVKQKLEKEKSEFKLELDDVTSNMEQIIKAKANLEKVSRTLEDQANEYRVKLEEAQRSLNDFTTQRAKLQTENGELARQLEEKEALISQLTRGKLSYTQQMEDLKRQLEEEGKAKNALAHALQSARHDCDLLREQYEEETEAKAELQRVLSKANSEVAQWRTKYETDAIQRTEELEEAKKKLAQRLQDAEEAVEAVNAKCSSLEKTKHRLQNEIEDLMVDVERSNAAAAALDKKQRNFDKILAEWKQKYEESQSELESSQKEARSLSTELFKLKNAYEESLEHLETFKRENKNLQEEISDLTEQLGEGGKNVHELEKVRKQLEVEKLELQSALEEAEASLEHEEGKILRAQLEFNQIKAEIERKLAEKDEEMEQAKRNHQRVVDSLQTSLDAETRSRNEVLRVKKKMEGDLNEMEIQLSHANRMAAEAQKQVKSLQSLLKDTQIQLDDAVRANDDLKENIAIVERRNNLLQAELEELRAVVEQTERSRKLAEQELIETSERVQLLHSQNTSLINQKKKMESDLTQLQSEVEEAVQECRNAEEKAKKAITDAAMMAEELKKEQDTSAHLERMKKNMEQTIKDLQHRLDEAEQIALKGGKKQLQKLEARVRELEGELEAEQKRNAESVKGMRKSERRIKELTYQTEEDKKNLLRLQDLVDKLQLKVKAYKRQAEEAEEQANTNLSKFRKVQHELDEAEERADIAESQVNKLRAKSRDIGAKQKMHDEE
UniProt Q9UK23: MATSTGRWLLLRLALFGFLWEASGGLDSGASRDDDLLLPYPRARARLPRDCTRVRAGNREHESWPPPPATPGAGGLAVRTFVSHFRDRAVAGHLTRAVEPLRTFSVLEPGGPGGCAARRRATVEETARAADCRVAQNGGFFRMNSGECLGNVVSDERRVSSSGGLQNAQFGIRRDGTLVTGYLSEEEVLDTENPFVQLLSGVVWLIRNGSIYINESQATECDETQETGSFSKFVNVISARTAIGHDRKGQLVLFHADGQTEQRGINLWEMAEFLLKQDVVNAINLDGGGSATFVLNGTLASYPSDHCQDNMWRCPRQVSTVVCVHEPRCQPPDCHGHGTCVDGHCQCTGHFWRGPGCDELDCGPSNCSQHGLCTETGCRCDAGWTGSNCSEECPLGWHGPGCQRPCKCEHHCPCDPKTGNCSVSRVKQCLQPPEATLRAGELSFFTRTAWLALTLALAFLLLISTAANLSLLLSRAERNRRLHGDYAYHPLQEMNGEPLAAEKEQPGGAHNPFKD
UniProt Q6ZVX7: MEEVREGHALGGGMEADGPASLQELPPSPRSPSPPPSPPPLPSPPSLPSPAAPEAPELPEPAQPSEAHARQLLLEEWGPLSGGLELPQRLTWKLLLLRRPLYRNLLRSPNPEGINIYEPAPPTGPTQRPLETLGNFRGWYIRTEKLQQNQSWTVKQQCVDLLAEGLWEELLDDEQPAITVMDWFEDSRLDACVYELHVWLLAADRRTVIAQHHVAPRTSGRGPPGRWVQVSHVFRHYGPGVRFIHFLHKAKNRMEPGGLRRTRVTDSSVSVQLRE
UniProt Q14596: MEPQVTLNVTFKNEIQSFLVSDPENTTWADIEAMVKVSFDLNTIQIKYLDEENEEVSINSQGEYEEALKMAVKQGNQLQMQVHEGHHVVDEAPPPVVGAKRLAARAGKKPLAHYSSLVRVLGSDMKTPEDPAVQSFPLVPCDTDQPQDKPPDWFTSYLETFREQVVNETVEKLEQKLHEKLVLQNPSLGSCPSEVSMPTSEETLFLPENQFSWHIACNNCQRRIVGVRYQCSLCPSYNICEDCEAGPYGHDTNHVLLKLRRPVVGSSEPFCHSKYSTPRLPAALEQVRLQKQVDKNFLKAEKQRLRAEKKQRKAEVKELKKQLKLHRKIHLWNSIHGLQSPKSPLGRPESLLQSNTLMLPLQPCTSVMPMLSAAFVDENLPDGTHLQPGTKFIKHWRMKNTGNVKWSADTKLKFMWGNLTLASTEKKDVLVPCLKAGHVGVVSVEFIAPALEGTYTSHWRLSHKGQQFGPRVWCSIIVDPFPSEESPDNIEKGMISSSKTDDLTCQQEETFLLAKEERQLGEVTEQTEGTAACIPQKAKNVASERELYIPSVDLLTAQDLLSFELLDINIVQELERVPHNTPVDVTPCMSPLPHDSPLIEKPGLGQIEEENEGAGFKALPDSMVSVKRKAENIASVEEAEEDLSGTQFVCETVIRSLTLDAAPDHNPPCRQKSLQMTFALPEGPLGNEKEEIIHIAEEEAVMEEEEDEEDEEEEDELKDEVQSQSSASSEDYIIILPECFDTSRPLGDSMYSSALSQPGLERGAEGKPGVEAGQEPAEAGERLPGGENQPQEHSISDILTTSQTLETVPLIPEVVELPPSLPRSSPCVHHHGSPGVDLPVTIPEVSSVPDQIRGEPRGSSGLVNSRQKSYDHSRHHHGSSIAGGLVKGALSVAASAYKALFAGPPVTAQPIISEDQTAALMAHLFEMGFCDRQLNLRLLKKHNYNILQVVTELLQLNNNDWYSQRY

[2] = compound: CS(=O)(=O)N1CCN(Cc2cc3nc(-c4cccc5[nH]ncc45)nc(N4CCOCC4)c3s2)CC1 [pictilisib]
Method in brief: as §1

[3] = compound: C[C@@H](Oc1cc(-c2cnn(C3CCNCC3)c2)cnc1N)c1c(Cl)ccc(F)c1Cl [crizotinib]
Method in brief: as §1

[4] = compound: C[C@H](C1=CC=C(C=C1)C(=O)NC2=C3C=CNC3=NC=C2)N
Method in brief: as §1

[5] = compound: C[C@H](Nc1ncnc2nc[nH]c12)c1cc2cccc(Cl)c2c(=O)n1-c1ccccc1 [duvelisib]
Method in brief: as §1

[6] = compound: Cc1cc(Nc2cc(CN3CCOCC3)c3nc(C)c(Cc4ccc(Cl)cc4F)n3n2)n[nH]1 [gandotinib]
Method in brief: as §1

[7] = compound: Cc1cc(Nc2cc(N3CCN(C)CC3)nc(Sc3ccc(NC(=O)C4CC4)cc3)n2)n[nH]1 [tozasertib]
Method in brief: as §1

[8] = compound: Cc1ccc(-n2nc(C(C)(C)C)cc2NC(=O)Nc2ccc(OCCN3CCOCC3)c3ccccc23)cc1 [doramapimod]
Method in brief: as §1

[9] = compound: Cc1ccc(NC(=O)c2ccc(CN3CC[C@H](N(C)C)C3)c(C(F)(F)F)c2)cc1Nc1nccc(-c2cncnc2)n1 [bafetinib]
Method in brief: as §1

[10] = compound: Cc1cccc(CC(=O)N2CCc3c2ccc(-c2cn(C)c4ncnc(N)c24)c3F)n1
Method in brief: as §1

[11] = compound: Cc1cn(-c2cc(NC(=O)c3ccc(C)c(Nc4nccc(-c5cccnc5)n4)c3)cc(C(F)(F)F)c2)cn1 [nilotinib]
Method in brief: as §1

[12] = compound: Cc1nc(Nc2n[nH]c3c2CN(C(=O)N[C@H](CN(C)C)c2ccccc2)C3(C)C)c2sccc2n1
Method in brief: as §1

[13] = compound: Cc1nc(Nc2ncc(C(=O)Nc3c(C)cccc3Cl)s2)cc(N2CCN(CCO)CC2)n1 [dasatinib]
Method in brief: as §1

[14] = compound: Cc1ncc(-c2ccnc(Nc3ccc(S(C)(=O)=O)cc3)n2)n1C(C)C
Method in brief: as §1

[15] = compound: Cn1cc(-c2ccc3c(c2)CCN3C(=O)Cc2cccc(C(F)(F)F)c2)c2c(N)ncnc21
Method in brief: as §1

[16] = compound: Cn1cc(CNCC2CCN(c3ncc(C(=O)NO)cn3)CC2)c2ccccc21 [quisinostat]
Method in brief: as §1

[17] = compound: Cn1cncc1[C@@](N)(c1ccc(Cl)cc1)c1ccc2c(c1)c(-c1cccc(Cl)c1)cc(=O)n2C [tipifarnib]
Method in brief: as §1

[18] = compound: NC(=O)Nc1cc(-c2cccc(F)c2)sc1C(=O)N[C@H]1CCCNC1
Method in brief: as §1

[19] = compound: NC(=O)c1cnc(N[C@@H]2CCCC[C@@H]2N)nc1Nc1cccc(-n2nccn2)c1
Method in brief: as §1

[20] = compound: NC1(c2ccc(-c3nc4ccn5c(=O)[nH]nc5c4cc3-c3ccccc3)cc2)CCC1
Method in brief: as §1

Target | log2 fold change [1] | log2 fold change [2] | log2 fold change [3] | log2 fold change [4] | log2 fold change [5] | log2 fold change [6] | log2 fold change [7] | log2 fold change [8] | log2 fold change [9] | log2 fold change [10] | log2 fold change [11] | log2 fold change [12] | log2 fold change [13] | log2 fold change [14] | log2 fold change [15] | log2 fold change [16] | log2 fold change [17] | log2 fold change [18] | log2 fold change [19] | log2 fold change [20]
NCR3LG1 (UniProt Q68D85) | inactive: -0.01 | inactive: -0.055 | inactive: 0.037 | inactive: -0.001 | inactive: 0.026 | inactive: 0.011 | inactive: -0.044 | inactive: -0.03 | inactive: 0.037 | inactive: -0.044 | inactive: 0.065 | inactive: -0.1 | inactive: 0.008 | inactive: -0.019 | inactive: -0.012 | inactive: 0.033 | inactive: 0.007 | inactive: 0.01 | inactive: -0.026 | inactive: 0.023
NCBP2 (UniProt P52298) | inactive: 0.018 | inactive: -0.004 | inactive: 0.079 | inactive: -0.007 | inactive: 0.007 | inactive: -0.063 | inactive: 0.024 | inactive: -0.008 | inactive: -0.008 | inactive: 0 | inactive: -0.031 | inactive: 0.042 | inactive: 0.05 | inactive: -0.025 | inactive: 0.033 | inactive: 0.033 | inactive: -0.008 | inactive: 0.043 | inactive: -0.001 | inactive: -0.032
N4BP3 (UniProt O15049) | inactive: -0.065 | inactive: -0.08 | – | – | – | – | – | – | inactive: 0.013 | – | inactive: -0.183 | inactive: 0.15 | – | inactive: 0.121 | – | – | inactive: 0.078 | – | inactive: -0.004 | inactive: 0.146
NAV2 (UniProt Q8IVL1) | inactive: -0.075 | inactive: -0.567 | – | inactive: -0.554 | – | inactive: 0.249 | inactive: 0.038 | – | inactive: -0.486 | inactive: 0.816 | inactive: 0.084 | inactive: 0.117 | – | inactive: -0.361 | – | – | inactive: -0.168 | – | inactive: -0.286 | –
MYO18B isoform 3 (UniProt Q8IUG5) | inactive: -0.024 | inactive: 0.03 | inactive: -0.029 | – | inactive: 0.026 | – | inactive: 0.03 | inactive: -0.036 | inactive: -0.075 | – | – | – | inactive: -0.095 | – | inactive: 0 | inactive: -0.062 | – | inactive: 0.054 | inactive: 0.026 | inactive: -0.018
MYH6 (UniProt P13533) | inactive: -0.111 | active: -1.52 | inactive: -0.097 | – | – | – | inactive: 0.009 | inactive: -0.245 | inactive: -0.132 | – | – | – | – | – | – | inactive: -0.007 | – | inactive: 0.082 | inactive: 0.092 | inactive: -0.114
NAGPA (UniProt Q9UK23) | inactive: -0.086 | inactive: -0.115 | – | inactive: 0.234 | inactive: 0.041 | inactive: -0.095 | – | – | inactive: 0.024 | inactive: -0.23 | inactive: 0.021 | inactive: 0.181 | inactive: -0.117 | inactive: -0.205 | inactive: 0.115 | – | inactive: -0.495 | – | inactive: 0.102 | inactive: 0.008
MYH11 isoform 2 (UniProt P35749) | inactive: 0.075 | inactive: -0.002 | inactive: 0.054 | active: 0.279 | inactive: 0.055 | inactive: -0.004 | inactive: 0.031 | inactive: -0.044 | inactive: 0.303 | inactive: -0.018 | inactive: -0.072 | inactive: -0.022 | inactive: -0.043 | inactive: -0.011 | inactive: 0.014 | inactive: 0.099 | inactive: -0.045 | inactive: -0.029 | inactive: 0.013 | inactive: -0.032
NCCRP1 (UniProt Q6ZVX7) | inactive: 0.198 | inactive: 0.504 | inactive: -0.127 | inactive: 0.551 | inactive: -0.31 | inactive: 0.382 | – | inactive: -0.096 | inactive: -0.012 | inactive: -0.539 | – | – | inactive: 0.221 | – | inactive: -0.152 | inactive: 0.161 | – | inactive: -0.25 | inactive: 0.032 | –
NAA15, A0A0B4J1W3 | inactive: -0.023 | inactive: 0.001 | inactive: 0.007 | inactive: 0.013 | inactive: 0.019 | inactive: -0.1 | inactive: -0.053 | inactive: -0.042 | inactive: -0.016 | inactive: 0.012 | – | – | inactive: -0.025 | – | inactive: 0.01 | inactive: 0.01 | – | inactive: -0.009 | inactive: 0.016 | inactive: 0.054
NBR1 (UniProt Q14596) | inactive: -0.002 | inactive: 0.026 | inactive: -0.019 | inactive: -0.02 | inactive: 0.082 | inactive: -0.109 | inactive: 0.384 | inactive: -0.082 | inactive: 0.009 | inactive: 0.143 | – | – | inactive: -0.03 | – | inactive: 0.137 | inactive: -0.061 | – | inactive: 0.039 | inactive: -0.029 | inactive: 0.155
NAGA (UniProt P17050) | inactive: -0.063 | inactive: -0.048 | inactive: 0 | inactive: 0.039 | inactive: 0.011 | inactive: -0.006 | inactive: -0.041 | inactive: -0.083 | inactive: 0.113 | inactive: -0.046 | inactive: -0.019 | inactive: -0.04 | inactive: -0.033 | inactive: -0.1 | inactive: -0.032 | inactive: 0.003 | inactive: 0.036 | inactive: -0.004 | inactive: -0.024 | inactive: 0.008
NCF4 (UniProt Q15080) | – | inactive: -0.107 | inactive: -0.151 | inactive: -0.421 | – | inactive: 0.203 | inactive: -0.032 | inactive: -0.032 | inactive: -0.294 | inactive: 0.197 | – | – | – | – | – | inactive: 0.103 | – | inactive: 0 | – | –
NCOA7 isoform 2 (UniProt Q8NI08) | inactive: -0.072 | – | – | – | inactive: 0.026 | – | – | – | – | – | – | – | inactive: -0.122 | – | inactive: 0.012 | – | – | – | inactive: -0.053 | –
MYH2 (UniProt Q9UKX2) | – | inactive: -1.94 | – | – | inactive: 0.072 | – | – | – | inactive: -0.132 | – | – | – | inactive: -0.337 | – | inactive: 0.73 | – | – | – | – | –
NACA (UniProt F8VNW4) | inactive: 0.252 | – | – | – | – | – | – | – | – | – | – | – | – | – | – | – | – | – | inactive: -0.063 | –
NAB2 (UniProt Q15742) | – | inactive: -0.033 | inactive: 0.039 | inactive: -0.003 | inactive: -0.073 | inactive: -0.035 | inactive: 0.039 | inactive: 0.078 | inactive: 0.051 | inactive: 0.009 | inactive: 0.009 | inactive: 0.034 | inactive: -0.214 | inactive: -0.032 | inactive: 0.264 | inactive: 0.006 | inactive: -0.022 | inactive: 0.028 | – | inactive: 0.062
NAP1L4 (UniProt C9J6D1) | inactive: -0.024 | – | – | – | – | – | – | – | – | – | – | – | – | – | – | – | – | – | inactive: 0.236 | –
MYO10 (UniProt Q9HD67) | – | inactive: 0.076 | inactive: -0.042 | active: 0.696 | – | inactive: -0.016 | – | inactive: -0.321 | inactive: -0.456 | inactive: -0.029 | inactive: -0.019 | inactive: -0.021 | – | inactive: 0.126 | – | inactive: 0.074 | inactive: -0.063 | inactive: -0.051 | – | inactive: -0.161

In a second layout: results already given
Target,log2 fold change [1],log2 fold change [2],log2 fold change [3],log2 fold change [4],log2 fold change [5],log2 fold change [6],log2 fold change [7],log2 fold change [8],log2 fold change [9],log2 fold change [10],log2 fold change [11],log2 fold change [12],log2 fold change [13],log2 fold change [14],log2 fold change [15],log2 fold change [16],log2 fold change [17],log2 fold change [18],log2 fold change [19],log2 fold change [20]
NCCRP1 (UniProt Q6ZVX7),inactive: 0.198,inactive: 0.504,inactive: -0.127,inactive: 0.551,inactive: -0.31,inactive: 0.382,–,inactive: -0.096,inactive: -0.012,inactive: -0.539,–,–,inactive: 0.221,–,inactive: -0.152,inactive: 0.161,–,inactive: -0.25,inactive: 0.032,–
"NAA15, A0A0B4J1W3",inactive: -0.023,inactive: 0.001,inactive: 0.007,inactive: 0.013,inactive: 0.019,inactive: -0.1,inactive: -0.053,inactive: -0.042,inactive: -0.016,inactive: 0.012,–,–,inactive: -0.025,–,inactive: 0.01,inactive: 0.01,–,inactive: -0.009,inactive: 0.016,inactive: 0.054

From the supplement of paper PMC10849652
